Data reported in the supplement of paper PMC12067093, “Discovery and optimisation of a covalent ligand for TRIM25 and its application to targeted protein ubiquitination” (Chemical Science, 2025).
This is one part of the list.

Chains of the proteins cited; added tags and fusions are not shown. Lines headed by an entry give the natural chain unless they say otherwise; changes in a name come on top.
UniProt Q13330: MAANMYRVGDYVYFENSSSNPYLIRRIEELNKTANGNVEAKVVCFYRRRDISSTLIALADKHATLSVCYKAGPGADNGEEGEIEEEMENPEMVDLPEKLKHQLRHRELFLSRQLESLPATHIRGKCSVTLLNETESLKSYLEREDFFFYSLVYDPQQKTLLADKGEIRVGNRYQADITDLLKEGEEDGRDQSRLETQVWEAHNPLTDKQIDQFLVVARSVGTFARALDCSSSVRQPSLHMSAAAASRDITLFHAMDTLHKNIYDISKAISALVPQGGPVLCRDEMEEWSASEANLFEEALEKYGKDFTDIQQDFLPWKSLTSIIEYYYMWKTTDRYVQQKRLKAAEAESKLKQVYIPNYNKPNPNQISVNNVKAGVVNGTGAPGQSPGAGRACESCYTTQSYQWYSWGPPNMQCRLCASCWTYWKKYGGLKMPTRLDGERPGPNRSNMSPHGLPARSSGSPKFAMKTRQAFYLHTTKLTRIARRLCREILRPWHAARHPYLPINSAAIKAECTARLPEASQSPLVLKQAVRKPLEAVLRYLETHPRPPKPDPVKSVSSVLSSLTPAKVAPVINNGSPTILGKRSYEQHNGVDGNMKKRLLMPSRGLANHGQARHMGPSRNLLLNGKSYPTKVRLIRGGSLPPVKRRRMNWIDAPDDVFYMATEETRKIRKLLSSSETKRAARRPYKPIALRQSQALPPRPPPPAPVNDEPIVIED
UniProt P52701: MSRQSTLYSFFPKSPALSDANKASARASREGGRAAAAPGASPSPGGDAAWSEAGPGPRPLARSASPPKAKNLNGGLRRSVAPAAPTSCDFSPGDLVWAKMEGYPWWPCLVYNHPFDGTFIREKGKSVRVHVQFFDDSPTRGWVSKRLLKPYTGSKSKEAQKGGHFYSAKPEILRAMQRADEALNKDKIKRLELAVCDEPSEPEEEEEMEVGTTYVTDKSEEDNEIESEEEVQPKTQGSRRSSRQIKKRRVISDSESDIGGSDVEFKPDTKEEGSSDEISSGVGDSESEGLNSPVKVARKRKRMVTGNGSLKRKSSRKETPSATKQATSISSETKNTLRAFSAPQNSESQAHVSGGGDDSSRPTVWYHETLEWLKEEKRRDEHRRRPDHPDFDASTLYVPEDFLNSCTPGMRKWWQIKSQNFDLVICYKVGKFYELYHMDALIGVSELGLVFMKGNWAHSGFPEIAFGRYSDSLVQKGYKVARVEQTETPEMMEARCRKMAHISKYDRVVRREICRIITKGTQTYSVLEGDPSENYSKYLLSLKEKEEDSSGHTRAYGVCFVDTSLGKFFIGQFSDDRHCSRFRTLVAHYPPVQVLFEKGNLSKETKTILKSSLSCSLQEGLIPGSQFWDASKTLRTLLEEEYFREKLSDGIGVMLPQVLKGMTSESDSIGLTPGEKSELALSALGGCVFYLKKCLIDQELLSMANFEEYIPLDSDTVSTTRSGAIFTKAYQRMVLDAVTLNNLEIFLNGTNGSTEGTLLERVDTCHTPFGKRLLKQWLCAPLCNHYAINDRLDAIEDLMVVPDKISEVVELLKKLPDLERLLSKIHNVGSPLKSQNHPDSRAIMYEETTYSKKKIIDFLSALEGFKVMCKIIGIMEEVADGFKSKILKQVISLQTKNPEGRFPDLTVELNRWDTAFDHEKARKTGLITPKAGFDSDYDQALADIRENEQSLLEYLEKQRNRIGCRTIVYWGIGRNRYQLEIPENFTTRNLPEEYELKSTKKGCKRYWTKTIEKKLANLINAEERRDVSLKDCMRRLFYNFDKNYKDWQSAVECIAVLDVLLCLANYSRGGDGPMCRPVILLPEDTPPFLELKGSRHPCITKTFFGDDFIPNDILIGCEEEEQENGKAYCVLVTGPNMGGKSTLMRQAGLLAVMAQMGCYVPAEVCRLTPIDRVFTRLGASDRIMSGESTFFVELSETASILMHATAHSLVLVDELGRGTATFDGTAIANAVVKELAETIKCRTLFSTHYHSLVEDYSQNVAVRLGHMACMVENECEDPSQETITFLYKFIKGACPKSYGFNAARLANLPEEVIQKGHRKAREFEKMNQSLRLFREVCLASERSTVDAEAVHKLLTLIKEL
UniProt P53602: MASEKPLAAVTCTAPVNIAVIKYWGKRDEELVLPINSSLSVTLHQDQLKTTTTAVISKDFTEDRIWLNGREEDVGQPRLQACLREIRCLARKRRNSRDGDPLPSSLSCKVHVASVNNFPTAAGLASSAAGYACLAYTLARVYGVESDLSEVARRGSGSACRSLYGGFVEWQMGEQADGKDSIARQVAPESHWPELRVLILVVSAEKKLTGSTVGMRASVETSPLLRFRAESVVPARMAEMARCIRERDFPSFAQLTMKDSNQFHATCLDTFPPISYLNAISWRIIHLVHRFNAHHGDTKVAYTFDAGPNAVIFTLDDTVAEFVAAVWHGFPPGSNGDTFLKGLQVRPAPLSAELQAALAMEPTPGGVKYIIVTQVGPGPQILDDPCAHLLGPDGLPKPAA
UniProt Q9Y217: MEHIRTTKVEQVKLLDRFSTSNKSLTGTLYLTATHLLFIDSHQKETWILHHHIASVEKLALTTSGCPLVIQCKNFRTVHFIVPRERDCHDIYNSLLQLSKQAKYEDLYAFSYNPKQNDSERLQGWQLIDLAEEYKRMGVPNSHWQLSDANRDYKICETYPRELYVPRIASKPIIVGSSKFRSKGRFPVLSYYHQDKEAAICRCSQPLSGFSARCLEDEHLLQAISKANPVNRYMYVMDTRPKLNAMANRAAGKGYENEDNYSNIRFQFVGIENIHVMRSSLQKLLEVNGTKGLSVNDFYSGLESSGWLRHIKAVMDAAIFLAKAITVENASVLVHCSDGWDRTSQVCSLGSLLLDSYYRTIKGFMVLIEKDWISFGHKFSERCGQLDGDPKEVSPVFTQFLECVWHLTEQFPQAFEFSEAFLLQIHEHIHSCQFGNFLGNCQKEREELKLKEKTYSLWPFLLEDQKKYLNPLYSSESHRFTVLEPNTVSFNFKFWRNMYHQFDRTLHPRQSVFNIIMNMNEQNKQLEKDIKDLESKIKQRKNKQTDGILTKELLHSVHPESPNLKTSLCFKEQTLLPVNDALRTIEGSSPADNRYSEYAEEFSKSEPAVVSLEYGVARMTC
UniProt Q9C0I1: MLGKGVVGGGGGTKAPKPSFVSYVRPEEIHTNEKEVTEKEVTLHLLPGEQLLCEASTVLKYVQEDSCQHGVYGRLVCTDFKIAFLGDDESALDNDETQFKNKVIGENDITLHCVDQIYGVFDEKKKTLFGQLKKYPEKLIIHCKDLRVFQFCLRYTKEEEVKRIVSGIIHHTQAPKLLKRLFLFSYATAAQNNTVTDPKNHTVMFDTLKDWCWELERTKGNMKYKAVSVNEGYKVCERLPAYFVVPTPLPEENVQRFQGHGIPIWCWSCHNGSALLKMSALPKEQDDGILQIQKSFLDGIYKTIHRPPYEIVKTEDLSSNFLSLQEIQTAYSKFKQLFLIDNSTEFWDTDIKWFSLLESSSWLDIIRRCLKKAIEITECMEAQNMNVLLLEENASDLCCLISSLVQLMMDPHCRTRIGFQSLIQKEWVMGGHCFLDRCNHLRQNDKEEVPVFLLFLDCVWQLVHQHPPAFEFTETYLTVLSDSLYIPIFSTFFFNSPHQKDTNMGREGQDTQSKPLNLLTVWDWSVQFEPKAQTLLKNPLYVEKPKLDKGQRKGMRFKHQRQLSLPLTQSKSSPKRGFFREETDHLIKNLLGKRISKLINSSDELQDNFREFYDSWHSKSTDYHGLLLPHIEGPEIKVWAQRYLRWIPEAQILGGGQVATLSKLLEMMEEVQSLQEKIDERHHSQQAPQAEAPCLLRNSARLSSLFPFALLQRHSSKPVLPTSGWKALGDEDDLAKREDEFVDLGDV
UniProt Q9BQG0: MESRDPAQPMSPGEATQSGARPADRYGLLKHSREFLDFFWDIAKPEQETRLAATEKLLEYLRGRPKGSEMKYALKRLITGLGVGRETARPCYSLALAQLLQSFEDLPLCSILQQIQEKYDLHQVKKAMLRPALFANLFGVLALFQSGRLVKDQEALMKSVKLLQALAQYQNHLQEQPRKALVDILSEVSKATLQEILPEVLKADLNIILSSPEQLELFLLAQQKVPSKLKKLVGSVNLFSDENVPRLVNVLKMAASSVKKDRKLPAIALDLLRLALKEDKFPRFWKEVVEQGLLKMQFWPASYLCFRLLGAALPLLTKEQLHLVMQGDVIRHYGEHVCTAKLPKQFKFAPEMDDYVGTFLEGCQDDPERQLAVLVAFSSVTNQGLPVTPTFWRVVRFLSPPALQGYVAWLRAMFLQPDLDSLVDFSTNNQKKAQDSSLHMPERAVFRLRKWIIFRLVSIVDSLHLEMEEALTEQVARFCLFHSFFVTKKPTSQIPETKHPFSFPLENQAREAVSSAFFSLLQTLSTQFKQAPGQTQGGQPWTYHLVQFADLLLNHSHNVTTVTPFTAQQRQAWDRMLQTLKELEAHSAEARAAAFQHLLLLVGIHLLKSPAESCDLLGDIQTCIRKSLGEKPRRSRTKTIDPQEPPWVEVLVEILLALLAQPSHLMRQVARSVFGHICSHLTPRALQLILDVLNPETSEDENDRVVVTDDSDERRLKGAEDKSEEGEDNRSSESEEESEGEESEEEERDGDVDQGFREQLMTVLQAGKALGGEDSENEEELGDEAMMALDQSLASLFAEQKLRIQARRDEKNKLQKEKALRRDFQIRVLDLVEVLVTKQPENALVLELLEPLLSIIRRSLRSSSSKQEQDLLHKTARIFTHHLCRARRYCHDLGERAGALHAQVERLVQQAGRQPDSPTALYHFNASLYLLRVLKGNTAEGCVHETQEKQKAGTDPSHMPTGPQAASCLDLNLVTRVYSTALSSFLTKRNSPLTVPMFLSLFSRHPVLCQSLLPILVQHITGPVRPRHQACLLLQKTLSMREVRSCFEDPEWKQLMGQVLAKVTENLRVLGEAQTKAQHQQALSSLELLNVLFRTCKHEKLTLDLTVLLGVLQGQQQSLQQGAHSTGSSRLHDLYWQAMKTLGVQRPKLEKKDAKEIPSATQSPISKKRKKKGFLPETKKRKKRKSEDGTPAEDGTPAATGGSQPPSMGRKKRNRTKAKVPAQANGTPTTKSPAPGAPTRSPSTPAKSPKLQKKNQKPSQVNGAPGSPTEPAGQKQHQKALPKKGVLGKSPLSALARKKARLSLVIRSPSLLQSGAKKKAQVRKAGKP
UniProt Q13615: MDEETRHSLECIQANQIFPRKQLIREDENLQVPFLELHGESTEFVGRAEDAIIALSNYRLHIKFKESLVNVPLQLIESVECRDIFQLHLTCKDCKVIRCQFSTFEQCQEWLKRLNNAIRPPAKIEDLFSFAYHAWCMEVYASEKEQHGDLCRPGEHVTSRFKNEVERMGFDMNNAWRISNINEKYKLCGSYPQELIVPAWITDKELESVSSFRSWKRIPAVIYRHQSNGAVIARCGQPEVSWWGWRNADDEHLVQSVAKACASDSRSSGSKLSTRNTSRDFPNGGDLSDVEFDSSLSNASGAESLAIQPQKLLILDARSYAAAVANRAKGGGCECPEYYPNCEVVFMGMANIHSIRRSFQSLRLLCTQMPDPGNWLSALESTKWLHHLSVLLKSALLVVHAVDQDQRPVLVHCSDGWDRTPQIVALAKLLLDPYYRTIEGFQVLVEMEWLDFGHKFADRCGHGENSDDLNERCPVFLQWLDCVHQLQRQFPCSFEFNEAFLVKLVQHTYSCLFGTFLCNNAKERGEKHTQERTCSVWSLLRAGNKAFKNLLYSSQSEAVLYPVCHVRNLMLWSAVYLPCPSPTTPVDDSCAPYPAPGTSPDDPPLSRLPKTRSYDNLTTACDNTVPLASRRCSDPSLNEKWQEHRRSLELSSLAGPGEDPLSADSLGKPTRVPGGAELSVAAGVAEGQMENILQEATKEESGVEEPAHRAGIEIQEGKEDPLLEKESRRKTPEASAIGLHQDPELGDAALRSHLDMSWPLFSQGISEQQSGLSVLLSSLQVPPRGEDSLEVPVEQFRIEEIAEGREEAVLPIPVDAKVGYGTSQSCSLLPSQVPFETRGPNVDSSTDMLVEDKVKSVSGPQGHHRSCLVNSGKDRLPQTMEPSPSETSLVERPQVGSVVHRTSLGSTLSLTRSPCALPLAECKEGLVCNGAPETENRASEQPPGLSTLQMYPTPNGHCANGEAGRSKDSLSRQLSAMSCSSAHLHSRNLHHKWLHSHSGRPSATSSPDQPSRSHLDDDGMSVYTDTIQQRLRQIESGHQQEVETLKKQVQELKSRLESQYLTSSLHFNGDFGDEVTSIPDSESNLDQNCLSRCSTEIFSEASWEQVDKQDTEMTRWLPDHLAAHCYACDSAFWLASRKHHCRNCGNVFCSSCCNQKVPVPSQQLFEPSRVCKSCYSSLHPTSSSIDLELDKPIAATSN

Compound: Cc1cc(ccc1-c1ccccc1)C(=O)N1CCCN(CC1)C(=O)CCl [compound 10]
Experiment: probe-labelled cysteine peptide fold change vs DMSO (competition) (log2 fold change); higher = less target engagement (more negative = stronger competition)
Settings: THP-1, incubation time: 4 h
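Further: competitive profiling in live THP-1 cells: cysteine peptides tagged with an iodoacetamide desthiobiotin (IA-DTB) probe, intensity after compound treatment relative to DMSO-treated cells.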

Target | probe-labelled cysteine peptide fold change (10 µM) | probe-labelled cysteine peptide fold change (50 µM)
MTA1_Q13330_68_HATLSVCYK (UniProt Q13330) | 0.127 | -0.265
MSH6_P52701_426_SQNFDLVICYK (UniProt P52701) | -0.258 | 0.619
MVD_P53602_12_PLAAVTCTAPVNIAVIK (UniProt P53602) | -0.196 | -0.161
MYH9_P35579_172_SMMQDREDQSILCTGESGAGK (UniProt P35579) | -0.173 | -0.145
MTMR6_Q9Y217_203_CSQPLSGFSAR (UniProt Q9Y217) | 0.233 | -0.4
MSH6_P52701_783_QWLCAPLCNHYAINDR (UniProt P52701) | -0.128 | -0.0134
MRPS31_Q92665_356_HFMELVTCGLSK (UniProt Q92665) | 0.0457 | -0.112
MTMR12_Q9C0I1_53_EVTLHLLPGEQLLCEASTVLK (UniProt Q9C0I1) | 0.0327 | -0.0646
MRPS5_P82675_377_GLHVVEIREECGPLPIVVASPR (UniProt P82675) | -0.186 | -0.0933
MYBBP1A_Q9BQG0_942_GNTAEGCVHETQEK (UniProt Q9BQG0) | -0.17 | -0.151
MTMR3_Q13615_151_EQHGDLCRPGEHVTSR (UniProt Q13615) | -0.109 | 0.264
MYD88_Q99836_203_LCVSDRDVLPGTCVWSIASELIEKR (UniProt Q99836) | 0.0807 | -0.881
MRPS22_P82650_231_HVDVLNLCFAQFEPDSTEYIK (UniProt P82650) | 0.131 | 0.0168
MYADM_Q96S97_279_DVSCSR (UniProt Q96S97) | -0.0569 | -0.0282
